The values below come from PubChem BioAssay AID2685 (National Center for Advancing Translational Sciences (NCATS), 2010).

In general, AC50 refers to the concentration giving half of the maximal activity seen. A higher AC50 goes with activity only at high concentration.

The structures appear in SMILES notation. The list shows a part of the results. These are further read-outs of the screen, such as a control signal, another cell line or another target. No call is given for them. Most of these compounds were active or inconclusive in the main read-out, so they are no random draw. Words in brackets tell the shape of the fitted curve; partial curves, single points and poor fits give uncertain potencies.

The assay in a line: qHTS Assay for Lipid Storage Modulators in Drosophila S3 Cells.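 For cell number change: cells counted by Cell Tracker Red CMTPX staining in the red channel.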 The following applies: BODIPY lipid droplet fluorescence, 18-24 h; for cell number change: measured here: cell count max response, cells fed with added oleic acid. The method in brief: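 Drosophila S3 cells got compounds at several concentrations plus oleic acid (400 uM solution). Laser-scanning cytometry with 488 nm excitation read lipid droplets at 500-530 nm and cells at 575-640 nm. Percent activity was relative to 20 uM Triacsin C.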

Where [1] appears, read: measured here: cell number channel AC50, cells fed with added oleic acid.
The mark [2] stands for this setting: measured here: lipid fluorescence (Fed channel) AC50, cells fed with added oleic acid.

`C#CCSc1nc(N)c2c(n1)OC(N)=C(C#N)C2c1cccnc1` (centres undefined): the cell number change turned out to be 29.9%. Moreover, the AC50 under setting [1] was 1.64 µM [rising, full curve, poor fit]. Further, the concentration at half-maximal activity (AC50) under setting [2] was 4.61 µM [rising, full curve]. Consider `O=C(Nc1c2c(nn1-c1ccc(F)cc1)CS(=O)C2)c1ccc2c(c1)OCO2` (centres undefined), for which the cell number change was 9.3%. Further, the concentration at half-maximal activity (AC50) under setting [2] is 0.517 µM [rising, full curve, poor fit]. Turning to `CCCN1CCN(CCNC(=O)Nc2cc(C)ccc2C)CC1`, the cell number change came out at 13.9%. Besides, the AC50 under setting [1] is 7.31 µM [rising, single point]. `CSCC[C@H](NC(=O)OC(C)(C)C)C(=O)NCC1CCC(C(=O)O)CC1` (some centres undefined): the cell number change was -16.8%. Take `CN(c1ccccc1)S(=O)(=O)c1cccc(NC(=O)c2ccc(=O)[nH]c2)c1`: the cell number change amounted to 15.8%. For the same molecule, under setting [2], the AC50 is 0.651 µM [rising, full curve, poor fit]. Turning to `Cc1cc(C)c(C#N)c(SCC(=O)Nc2ccc(S(=O)(=O)Nc3ncccn3)cc2)n1`, the cell number change came to 21.1%. Under setting [2], the AC50 was 18.4 µM [falling, single point]. Consider `CCn1ncc(/C=N/NS(=O)(=O)c2ccc(Cl)cc2)c1C`, for which the cell number change is -15.5%. Further, the AC50 under setting [2] was 4.11 µM [rising, full curve, poor fit]. On to `Cc1ccc(CNC(=O)c2ccc(S(=O)(=O)N3CCCCC3)cc2)cc1`, for which the cell number change was found to be 191%. Regarding `CCc1[nH]nc(C(=O)N2CCCC(N3CCN(c4ccccc4C)CC3)C2)c1C` (centres undefined), the cell number change was -41.1%. For the same molecule, the half-maximal activity concentration (AC50) under setting [1] was 32.6 µM [falling, partial curve, poor fit]. The concentration at half-maximal activity (AC50) under setting [2] is 29.1 µM [rising, single point]. As to `O=C(CCN1C(=O)c2ccccc2C1=O)Nc1ccc(-c2nc3ccccc3o2)cc1`, the cell number change worked out at 53.1%. The AC50 under setting [1] is 5.8 µM [rising, full curve, poor fit]. In addition, the AC50 under setting [2] was 1.16 µM [rising, full curve]. With `N#Cc1ccc(Oc2cccc3cccnc23)c([N+](=O)[O-])c1`, the cell number change was determined as 3.55%. Consider `CCCCn1c(N)c(N(CCOC)C(=O)c2ccc(Br)s2)c(=O)[nH]c1=O`, for which the cell number change was 39.8%. Also, the AC50 under setting [1] was 16.4 µM [rising, single point]. As to `Cn1cccc1/C=N/NC(=O)CNc1cccc2ccccc12`, the cell number change was -1.71%. As for `COc1ccc(CCN2C(=O)CC(C(C)c3ccccc3)C2=O)cc1OC` (centres undefined), the cell number change stood at 38.9%. For the same molecule, under setting [1], the AC50 was 7.31 µM [rising, partial curve, poor fit]. As for `COc1ccc(OC)c(NC(=O)CSc2nn3c(=O)c(C)nnc3s2)c1`, the cell number change turned out to be 20.1%. Further, the AC50 under setting [2] is 6.51 µM [rising, single point].

As for `CCCCn1c(N)c(N(CCC(C)C)C(=O)c2cccc(-n3cnnn3)c2)c(=O)[nH]c1=O`, the cell number change is -7.63%. Under setting [1], the concentration at half-maximal activity (AC50) was 4.11 µM [falling, single point]. On to `CCOc1cc(C=O)ccc1OCCn1c([N+](=O)[O-])cnc1C`, for which the cell number change is -30.5%. Further, the AC50 under setting [1] is 1.64 µM [falling, full curve, poor fit]. On to `COc1cc(-c2cc(C(=O)Nc3ccc(S(N)(=O)=O)cc3)c3ccccc3n2)cc(OC)c1OC`, for which the cell number change came to 26.3%. Turning to `CCOC(=O)C1CCN(c2c([N+](=O)[O-])c(C(Cl)Cl)nn2-c2ccccc2)CC1`, the AC50 under setting [2] was 0.651 µM [rising, single point]. On the same count and under the same terms, under `O=c1c2c(nc3nc(CCc4ccccc4)[nH]n13)CCC2` stands 6.51 µM [falling, single point]. On to `CCC(CC)C(=O)Nc1c2c(nn1-c1ccc(OC)cc1)CS(=O)(=O)C2`, for which the cell number change is 161%.

In the case of `COCCN(CCOC)S(=O)(=O)c1ccc(C(=O)NCCCN2CCOCC2)cc1`, the cell number change is 1.98%.

On to `Cn1c(=O)[nH]c(=O)c2c1nc(N1CCCC1)n2CCCSc1nnnn1-c1ccccc1`, for which the cell number change is -17.2%. Further, the AC50 under setting [2] was 20.6 µM [falling, single point]. For the molecule `O=C1c2ccccc2NC(c2ccc(O)cc2)N1/N=C/c1ccc(O)cc1` (centres undefined), the cell number change is 4.37%. Also, under setting [2], the AC50 was 29.1 µM [rising, single point].

As to `CC1(C)CC2(CCO1)OC(=O)CC2C(=O)Nc1ccc(Cl)cc1[N+](=O)[O-]` (centres undefined), the cell number change was -8.26%. Also, the half-maximal activity concentration (AC50) under setting [2] was 0.58 µM [falling, full curve, poor fit]. As to `CC1CN(C(=O)c2cccc(S(=O)(=O)Nc3cc(Cl)ccc3Cl)c2)CC(C)O1` (centres undefined), the AC50 under setting [2] was 18.4 µM [rising, partial curve].

As for `O=C(c1ccc(=O)[nH]c1)N(Cc1ccco1)C1(C(=O)NC2CCCCC2)CCCCC1`, the AC50 under setting [2] is 0.58 µM [falling, single point]. With `COCCN(C(=O)CC1OC(=O)c2ccccc21)c1c(N)n(Cc2ccccc2)c(=O)[nH]c1=O` (centres undefined), the cell number change was 3.03%. The AC50 under setting [2] was 29.1 µM [falling, partial curve, poor fit].

As for `COc1cccc(-n2nnnc2SCC(=O)NCCc2ccccc2)c1`, the cell number change turned out to be 50.5%. The AC50 under setting [1] was 6.51 µM [rising, partial curve]. For the same molecule, the half-maximal activity concentration (AC50) under setting [2] is 0.58 µM [rising, partial curve]. `C=CCN(c1ccccc1)S(=O)(=O)c1ccc2c(c1)oc(=O)n2C`: the cell number change is -8.95%. Also, the AC50 under setting [2] was 0.00461 µM [falling, full curve, poor fit]. As for `O=C(O)CSc1nc2ccccc2c(=O)[nH]1`, the cell number change was -8.02%. Further, the half-maximal activity concentration (AC50) under setting [1] is 0.146 µM [falling, full curve, poor fit].

For the molecule `O=C(NC(Cc1ccccc1)C(=O)O)/C(=C\c1ccccc1)NC(=O)c1ccc(Br)o1` (centres undefined), the cell number change was 1.76%. For the same molecule, the AC50 under setting [2] was 7.31 µM [rising, partial curve, poor fit]. Consider `Cc1cccc(N(C)C(=O)c2cnn(-c3ccccc3)c2C)c1`, for which the cell number change was 14.4%. In the case of `CC(=O)NS(=O)(=O)c1ccc(NC(=O)/C=C/c2ccccc2)cc1`, the cell number change was -2.62%. Under setting [2], the half-maximal activity concentration (AC50) was 6.51 µM [falling, partial curve, poor fit]. Consider `Cc1ccc(C(=O)NC2CCCCCC2)cc1S(=O)(=O)N1CCOCC1`, for which the cell number change was -12.9%. For the same molecule, the AC50 under setting [2] is 1.3 µM [falling, full curve, poor fit].

For the molecule `Cc1cc(C(=O)CSc2cccc[n+]2[O-])c(C)n1-c1ccccc1`, the cell number change worked out at 32.8%. Besides, under setting [1], the concentration at half-maximal activity (AC50) was 35.5 µM [rising, single point]. Turning to `Cc1cc(NC(=O)C(C)SCC(=O)OCC(=O)N(C)c2ccccc2)no1` (centres undefined), the cell number change is -43.1%. Also, under setting [1], the half-maximal activity concentration (AC50) was 25.9 µM [falling, single point]. For the same molecule, the concentration at half-maximal activity (AC50) under setting [2] is 20.6 µM [falling, single point]. For `COC(=O)CC1=NN(c2ccc(OC)cc2)C(=O)/C1=C\c1ccc(Cl)cc1`, the cell number change is -9.31%. Further, the half-maximal activity concentration (AC50) under setting [2] is 2.31 µM [falling, partial curve, poor fit].
